Measured values taken from PubChem BioAssay AID720551 (National Center for Advancing Translational Sciences (NCATS), 2013).
The entries are a selection whose mix differs from that of the whole data set. Calls of active or inactive are those of the source.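 How the source made its calls: active means maximum activity change below -70%; inconclusive means maximum activity change between -70% and -50%; inactive means maximum activity change above -50%.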

Sequences of proteins named here, by UniProt entry; tags and fusion partners are left off. A change or cut given only in a name is not applied to a line headed by its entry.
UniProt Q12809: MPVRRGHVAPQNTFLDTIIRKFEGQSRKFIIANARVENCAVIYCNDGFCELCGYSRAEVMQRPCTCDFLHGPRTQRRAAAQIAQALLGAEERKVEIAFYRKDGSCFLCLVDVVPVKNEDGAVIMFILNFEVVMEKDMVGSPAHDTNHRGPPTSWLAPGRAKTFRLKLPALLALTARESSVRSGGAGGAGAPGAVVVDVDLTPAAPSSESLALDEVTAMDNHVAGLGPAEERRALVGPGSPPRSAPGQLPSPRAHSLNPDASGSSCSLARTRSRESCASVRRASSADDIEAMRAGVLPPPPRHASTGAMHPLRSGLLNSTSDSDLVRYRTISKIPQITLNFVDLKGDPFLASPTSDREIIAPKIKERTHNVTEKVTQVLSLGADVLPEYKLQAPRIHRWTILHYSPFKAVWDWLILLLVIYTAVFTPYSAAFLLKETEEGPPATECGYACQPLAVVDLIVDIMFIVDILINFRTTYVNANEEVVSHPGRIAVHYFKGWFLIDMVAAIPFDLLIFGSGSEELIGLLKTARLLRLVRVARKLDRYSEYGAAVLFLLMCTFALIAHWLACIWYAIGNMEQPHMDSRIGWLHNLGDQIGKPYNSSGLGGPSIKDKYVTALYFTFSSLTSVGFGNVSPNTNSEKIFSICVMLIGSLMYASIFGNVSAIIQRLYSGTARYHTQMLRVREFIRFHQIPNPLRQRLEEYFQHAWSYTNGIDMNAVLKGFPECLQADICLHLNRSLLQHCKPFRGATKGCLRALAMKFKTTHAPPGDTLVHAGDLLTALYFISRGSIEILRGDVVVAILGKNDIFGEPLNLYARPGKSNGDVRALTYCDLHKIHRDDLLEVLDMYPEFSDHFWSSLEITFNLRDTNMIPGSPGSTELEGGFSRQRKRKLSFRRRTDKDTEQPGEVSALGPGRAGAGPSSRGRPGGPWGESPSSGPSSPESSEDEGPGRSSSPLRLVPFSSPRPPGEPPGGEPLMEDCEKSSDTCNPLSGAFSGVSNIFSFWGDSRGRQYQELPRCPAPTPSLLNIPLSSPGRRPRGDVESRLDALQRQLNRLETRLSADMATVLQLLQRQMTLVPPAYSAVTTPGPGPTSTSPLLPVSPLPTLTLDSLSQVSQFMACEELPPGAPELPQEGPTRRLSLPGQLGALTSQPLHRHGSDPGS

Target: Voltage-gated inwardly rectifying potassium channel KCNH2 (Homo sapiens) (UniProt Q12809)
Experiment: qHTS for Inhibitors of KCHN2 3.1: Wildtype qHTS
Conditions: U2OS, BacMam KCNH2, thallium flux FluxOr; at 1.84 µM; stronger effect = lower value
Excerpt: Many antipsychotic drugs that inhibit the neurotransmitter dopamine also bind to hERG1 channel which might help explain their antipsychotic activity but also produces cardiac side effects. The discovery of the novel KCNH2 3.1 isoform offers a potential new target for the development of antipsychotic drugs without cardiac side effects. This proposal will use a high throughput thallium flux assay developed for KCNH2 to screen compounds that modulate the activity of KCNH2 3.1. The wild type KCNH2 channel will also be screened in parallel to help define the selective modulators of this KCNH2 3.1 potassium channel. The resulting compounds will be validated in electrophysiology experiments. The availability of animal models will allow future testing in vivo for effects on memory and other aspects of animal physiology linked with psychosis. NIH Chemical Genomics Center [NCGC] NIH Molecular Libraries Probe Centers Network [MLPCN] MLPCN Grant: MH096539 Assay Submitter (PI): James Barrow, Johns Hopkins University, Lieber Institute for Brain Development
U2OS cells were resuspended in cell media containing 10% fetal calf serum (FCS) at a concentration of 2 million cells / mL. […] A stimulation buffer was added to the plate and the second kinetic read (2 min) was obtained. The rate constant was calculated from the kinetic reads and normalized to the positive and negative DMSO controls.
On the % scale 0 is the no-effect control and ±100 the full control effect.

Row | Structure (SMILES) | activity change
1 | COc1ccccc1C(=O)Nc1ccnn1C1CCN(Cc2cc(C)c(C)cc2C)CC1 | active: -101%
